Source: article doi:10.1101/2024.09.02.610668 (bioRxiv, 2024)
Read-outs that look alike come from different tables or passages of the source. These are yes or no findings as the source states them, for the method shown. Some results given as binding are weak or reduced against the parent protein; the word gives no strength.

The chains behind the UniProt entries cited, without tags or fusion partners.
UniProt O75175: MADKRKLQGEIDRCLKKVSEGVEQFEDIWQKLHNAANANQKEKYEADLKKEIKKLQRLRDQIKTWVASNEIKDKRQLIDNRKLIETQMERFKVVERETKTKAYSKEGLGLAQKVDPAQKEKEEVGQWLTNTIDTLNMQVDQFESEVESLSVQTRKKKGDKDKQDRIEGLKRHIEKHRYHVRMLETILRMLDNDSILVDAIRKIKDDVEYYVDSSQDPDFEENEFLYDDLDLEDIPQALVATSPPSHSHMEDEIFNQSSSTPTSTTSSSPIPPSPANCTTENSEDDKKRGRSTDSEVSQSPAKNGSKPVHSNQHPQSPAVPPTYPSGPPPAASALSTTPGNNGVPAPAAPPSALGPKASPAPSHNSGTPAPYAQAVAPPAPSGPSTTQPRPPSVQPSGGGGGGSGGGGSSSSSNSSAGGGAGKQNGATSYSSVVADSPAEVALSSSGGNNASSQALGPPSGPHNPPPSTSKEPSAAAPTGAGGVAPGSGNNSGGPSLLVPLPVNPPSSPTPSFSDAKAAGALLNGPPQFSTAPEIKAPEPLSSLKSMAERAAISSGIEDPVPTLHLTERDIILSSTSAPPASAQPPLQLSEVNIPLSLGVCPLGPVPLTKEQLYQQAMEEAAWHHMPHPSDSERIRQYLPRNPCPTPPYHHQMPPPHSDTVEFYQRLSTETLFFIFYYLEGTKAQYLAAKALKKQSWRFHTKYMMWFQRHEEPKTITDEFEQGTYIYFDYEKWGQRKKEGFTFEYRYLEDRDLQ
UniProt Q9NZN8: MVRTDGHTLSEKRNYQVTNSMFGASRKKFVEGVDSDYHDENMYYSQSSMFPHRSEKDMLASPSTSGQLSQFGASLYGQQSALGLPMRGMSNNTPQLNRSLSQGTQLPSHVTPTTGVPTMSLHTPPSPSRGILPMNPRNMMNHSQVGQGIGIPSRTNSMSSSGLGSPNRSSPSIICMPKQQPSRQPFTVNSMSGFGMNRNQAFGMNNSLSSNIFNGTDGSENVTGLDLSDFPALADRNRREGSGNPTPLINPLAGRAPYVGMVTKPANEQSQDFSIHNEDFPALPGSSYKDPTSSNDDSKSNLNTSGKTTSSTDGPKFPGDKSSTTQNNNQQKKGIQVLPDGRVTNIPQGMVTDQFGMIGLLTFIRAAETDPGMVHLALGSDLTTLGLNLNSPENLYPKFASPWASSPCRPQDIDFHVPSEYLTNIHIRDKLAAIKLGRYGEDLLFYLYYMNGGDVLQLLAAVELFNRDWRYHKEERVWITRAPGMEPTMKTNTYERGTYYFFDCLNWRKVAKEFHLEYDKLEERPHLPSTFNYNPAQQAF
UniProt Q92600: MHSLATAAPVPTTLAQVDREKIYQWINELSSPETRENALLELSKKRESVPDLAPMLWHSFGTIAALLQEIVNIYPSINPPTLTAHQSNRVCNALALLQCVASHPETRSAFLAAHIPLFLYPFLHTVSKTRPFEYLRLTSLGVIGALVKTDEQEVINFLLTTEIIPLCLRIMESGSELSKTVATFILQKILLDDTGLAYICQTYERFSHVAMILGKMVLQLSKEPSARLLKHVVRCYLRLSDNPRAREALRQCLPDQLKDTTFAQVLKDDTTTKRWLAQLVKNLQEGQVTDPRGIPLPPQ

How the values were obtained:
Assay in all cases: cross-linking
[1] = molecular target: CNOT3, subunit of the recombinant human CCR4-NOT complex (human) (UniProt O75175)
[2] = molecular target: CNOT2, subunit of the recombinant human CCR4-NOT complex (human) (UniProt Q9NZN8)
[3] = molecular target: CNOT2, subunit of the recombinant human CCR4-NOT complex (human) (UniProt Q9NZN8); remark: listed apart in the source

binding [1]	binding [2]	binding [3]	Substance
binds	–	–	CNOT9, subunit of the recombinant human CCR4-NOT complex (from UniProt Q92600 1-299)
–	binds	binds	CNOT3, subunit of the recombinant human CCR4-NOT complex (from UniProt O75175 1-753)
